We go through two molecules from patent publication US20160138036A1 (SNU R AND DB FOUNDATION, published 2016).

First the molecules themselves.
B1: SOC1 (SUPPRESSOR OF OVEREXPRESSOR OF CONSTANS 1) transcription factor (other)
chain: MVRGKTQMKRIENATSRQVTFSKRRNGLLKKAFELSVLCDAEVSLIIFSPKGKLYEFASSNMQDTIDRYLRHTKDRVSTKPVSEENMQHLKYEAANMMKKIEQLEASKRKLLGEGIGTCSIEELQQIEQQLEKSVKCIRARKTQVFKEQIEQLKQKEKALAAENEKLSEKWGSHESEVWSNKNQESTGRGDEESSPSSEVETQLFIGLPCSSRK
modifications: 35S-Met label in the pull-down assay (in vitro translated)
notes: Full-size MADS box transcription factor; In yeast two-hybrid it was fused to GAL4 AD or BD (pGADT7/pGBKT7); In BiFC it was fused to a half of EYFP; In the pull-down it was in vitro translated from pGADT7 and 35S-labeled; also called Arabidopsis SOC1; At2g45660
B2: S-MIK truncated SOC1 form (peptide)
chain: MVRGKTQMKRIENATSRQVTFSKRRNGLLKKAFELSVLCDAEVSLIIFSPKGKLYEFASSNMQDTIDRYLRHTKDRVSTKPVSEENMQHLKYEAANMMKKIEQLEASKRKLLGEGIGTCSIEELQQIEQQLEKSVKCIRARKTQVFKEQIEQLKQKEKALAAENEKLSEK
modifications: 35S-Met label in the pull-down assay (in vitro translated)
notes: It was fused to GAL4 domain or EYFP half in yeast and BiFC assays; also called SOC1 a-siPEP

Data set [1] concerns the molecule itself. As to the kind of experiment: yeast two-hybrid (GAL4 AD/BD fusions, growth on -QD, beta-Gal). The method, then:
Yeast two-hybrid assays were performed using the BD Matchmaker system (Clontech, Mountain View, Calif.). The pGADT7 vector was used for GAL4 AD (activation domain) fusion, and the pGBKT7 vector was used for GAL4 BD (DNA-binding domain) fusion. The yeast strain AH109 (leu-, trp-, ade-, his-), which has chromosomally integrated reporter genes lacZ and HIS under the control of the GAL1 promoter, was used for transformation. The PCR product of SOC1 gene was digested with EcoRI and BamHI and subcloned into the pGBKT7 and pGADT7 vectors. Transformation of the AH109 cells was carried out according to the manufacturer's instruction. Colonies obtained were streaked on a medium without His, Ade, Leu, and Trp. To confirm the results of cell growth assays, β-galactosidase (β-Gal) assays were also carried out according to the system procedure.

Data set [2] addresses B1. As to the kind of experiment: BiFC (split EYFP fusions) in Arabidopsis protoplasts. Here is the method: BiFC assays were carried out as described previously (Hong et al., J. Biol. Chem. 286, 1659-1668, 2011). A full-size SOC1 gene was fused in-frame to the 5′ end of a gene sequence encoding the C-terminal half of EYFP in the pSATN-cEYFP-C1 vector (E3082). Truncated SOC1 gene sequences were fused in-frame to the 5′ end of a gene sequence encoding the N-terminal half of EYFP in the pSATN-nEYFP-C1 vector (E3081). The expression constructs were cotransformed into Arabidopsis protoplasts. Expression of the fusion constructs was monitored by fluorescence microscopy using a Zeiss LSM510 confocal microscope (Carl Zeiss MicroImaging GmbH, Jena, Germany). The BdSOC1 gene constructs were prepared similar to the Arabidopsis SOC1 gene constructs and transiently expressed in Brachypodium protoplasts.

Consider B1, for which, in data set [1], the binding result was “binds”. Consider B2, for which the binding result in data set [2] is “binds”.
